In PubChem BioAssay AID2685 (National Center for Advancing Translational Sciences (NCATS), 2010):
Several values for one entry are separate records, joined by “and”; a condition that tells them apart may be missing. Equal values may be shown once. The list shows a part of the results. Further columns of the screen follow, without active or inactive calls. The list favours compounds with an active or inconclusive main result. Potencies come from curve fits of mixed quality, noted in brackets.

Experiment: qHTS Assay for Lipid Storage Modulators in Drosophila S3 Cells;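 as to cell number change: cells counted by Cell Tracker Red CMTPX staining in the red channel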
Settings: BODIPY lipid droplet fluorescence, 18-24 h; for cell number change: measured here: cell count max response, cells fed with added oleic acid
Procedure, shortened: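 Drosophila S3 cells loaded with oleic acid (400 uM, as added) and compounds at several concentrations; lipid droplets imaged by 488-nm laser-scanning cytometry, 500–530 nm intensity and object ratio to cell channel. Percent activity normalized to 20 uM Triacsin C.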

[1] = measured here: lipid fluorescence (Fed channel) AC50, cells fed with added oleic acid
[2] = measured here: cell number channel AC50, cells fed with added oleic acid

Question: Which cell number change does the source give for `CSc1nnc(CNS(=O)(=O)c2ccc(F)cc2)n1C` here?
Answer: Its cell number change is 7.14%.

Question: For `CCC(=O)N1CCc2cc(S(=O)(=O)NCCCN(CC)Cc3ccccc3)ccc21`, which cell number change is on record?
Answer: Its cell number change is 20.8%.

Question: Which cell number change does the source give for `Cc1nn2c(N)csc2nc1=O` here?
Answer: The cell number change was -15.6%.

Question: And the AC50 [1]?
Answer: The AC50 was 5.8 µM [falling, full curve, poor fit].

Question: Which results are given for `Cc1cc(C)c(OCC(O)CN2CCN(C(=O)c3ccccc3)CC2)c(C)c1` (centres undefined)?
Answer: cell number change: 1.93%; AC50 [1]: 29.1 µM [rising, single point]

Question: What does the source list for `COc1cc(NC(=O)c2cc(-c3cccc(O)c3)on2)cc(OC)c1OC`?
Answer: cell number change: 27.7%; AC50 [1]: 7.31 µM [rising, single point]

Question: Which cell number change does the source give for `O=C(COC(=O)c1cc(=O)[nH]c2ccccc12)NC1CCCC1` here?
Answer: Its cell number change is -50.6%.

Question: And the AC50 [1]?
Answer: The AC50 was 29.1 µM [falling, single point].

Question: Which cell number change does the source give for `CCCCNC(=O)CSc1nnc(-c2cccc(S(=O)(=O)N3CCOCC3)c2)o1` here?
Answer: The cell number change was -35.6%.

Question: What about the AC50 [2] of the same compound?
Answer: The AC50 was 25.9 µM [falling, single point].

Question: And the AC50 [1]?
Answer: The AC50 was 6.51 µM [falling, single point].

Question: With `Cc1ccc(-c2noc(CCCC(=O)NCC3CCCO3)n2)cc1` (centres undefined) as the compound, how does the cell number change read?
Answer: The cell number change was -4.76%.

Question: And the AC50 [2]?
Answer: Its AC50 is 0.116 µM [rising, full curve, poor fit].

Question: And the AC50 [1]?
Answer: The AC50 was 29.1 µM [falling, single point].

Question: Which cell number change does the source give for `Cc1ccc(S(=O)(=O)N2CCN(C(=O)CN3C(=O)c4ccccc4C3=O)CC2)c(C)c1` here?
Answer: Its cell number change is 21.6%.

Question: And the AC50 [1]?
Answer: The AC50 was 0.461 µM [rising, full curve, poor fit].

Question: What does the source list for `CC(=O)N1c2ccc(S(=O)(=O)N3CCC(C(=O)N4CCCC(C)C4)CC3)cc2CC1C` (centres undefined)?
Answer: cell number change: -19.1%; AC50 [1]: 20.6 µM [falling, single point]

Question: Which cell number change does the source give for `Cn1nc(CSc2ccccc2)c(C=O)c1Cl` here?
Answer: Its cell number change is 22.1%.

Question: And the AC50 [1]?
Answer: Its AC50 is 0.651 µM [falling, single point].

Question: Which cell number change does the source give for `O=C(NCc1ccccc1)c1ccc(N2CCC3(CC2)CC(c2ccc(Cl)cc2)=NO3)c([N+](=O)[O-])c1` here?
Answer: The cell number change was 16.5%.

Question: What about the AC50 [1] of the same compound?
Answer: The AC50 was 0.13 µM [falling, full curve, poor fit].

Question: With `CCN(CC)CCCN1C(=O)C(=O)/C(=C(/O)c2ccc3c(c2)CC(C)O3)C1c1cccnc1` (centres undefined) as the compound, how does the cell number change read?
Answer: Its cell number change is -10.4%.

Question: What about the AC50 [1] of the same compound?
Answer: The AC50 was 16.4 µM [falling, single point].

Question: With `O=C1COc2ccc(S(=O)(=O)NCc3ccc(Cl)cc3)cc2N1` as the compound, how does the cell number change read?
Answer: The cell number change was 11.8%.

Question: And the AC50 [1]?
Answer: Its AC50 is 29.1 µM [rising, single point].

Question: Which cell number change does the source give for `Cc1nc(SCC(=O)NC2(C#N)CCCC2)n(CC(C)C)c1C` here?
Answer: The cell number change was -2%.

Question: With `NC(=O)C1CN(C(=O)c2nn(Cc3ccccc3)c(=O)c3ccccc23)c2ccccc2O1` (centres undefined) as the compound, how does the cell number change read?
Answer: Its cell number change is 228%.

Question: What about the AC50 [2] of the same compound?
Answer: The AC50 was 10.3 µM [rising, partial curve].

Question: For `c1ccc(CNc2ncnc3ccccc23)cc1`, which cell number change is on record?
Answer: Its cell number change is -5.81% and -39.6%.

Question: And the AC50 [2]?
Answer: The AC50 was 2.59 µM [falling, partial curve].

Question: What about the AC50 [1] of the same compound?
Answer: Its AC50 is 18.4 µM [falling, single point] and 8.2 µM [falling, partial curve].
